In PubChem BioAssay AID1508600 (Functional Genomics Laboratory (NCATS/FGL), 2020) one finds z-score data, which are given here for 69 sequences.

Hit rate of the full screen: of about 53,000 sequences, about 3,700 (7%) were called active.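 How the source made its calls: active means gene knockdowns whose robust z-score for IL-1 alpha signal is at least 2 or at most -2, so actives lie on both sides; inactive means the rest.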 The list shows a part of the results.

A short description of the experiment: Components of the Cytosolic LPS Sensing Pathway: Gene Identification via Genome-wide siRNA Screen.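 Further: robust z of the log signal after scaling to non-targeting control siRNA wells of the plate.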 To be noted: RAW264.7 macrophages, IL-1a HTRF, actives lie on both sides, screened at 100 nM (by protocol), cells primed 5 h with Pam3CSK4 first. In a few lines:
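Read-out: IL-1a HTRF on supernatant, divided by plate negative-control median ×100, log-transformed and converted to robust z-score. Cells were RAW264.7 given 100 nM siRNA, Pam3CSK4-primed 5 hours, then LipidA-transfected 24 hour.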
Regarding CCUCUGUGUUAUUUUGCAUTT against Pgm1, the z-score is inactive: 0.578. To CCCAUAUGAGCUGAAAGCUTT against Il1b belongs inactive: -0.878. To GGUUUUGCAUUUCGGAGAATT against Ccdc59 belongs inactive: -0.223; to CCUAAUAGUGCCUAUGAUUTT against Smc2, inactive: -0.559; to GGCAUUGGAUCUUCAUUUUTT against Slc18a1, active: 2.35. The figure for GCCUAACUAGCAAUAAAAGTT against Khdc4 is inactive: -0.369; for GGAAGGAUUUAUCUUAGUUTT against C4bp it is inactive: -0.192; for GGAUCCUAAACACUUCAAGTT against Pitpnc1 it is inactive: 0.612.

As to GCAGCGGCUUUACAAGGAUTT against Elob, the z-score was inactive: -0.233.

On to GGACUGUUUGAACAUCUGGTT against Tomm7, for which the z-score is inactive: -0.318. In the case of GGGCUUGAAAUUGAAAUGUTT against Ccl9, the z-score is inactive: -1.09. To “GGAUUGACAAAUAGCUUGUTT against B430209F14Rik” belongs inactive: 0.969; to GCAAUUAGACAGCAUUCAUTT against Il16, inactive: 0.491; to GGUUCUAAACCUAGCUUUUTT against Fryl, inactive: 0.539. GGACAAGAAUCCUUGAGUGTT against Nxt1: the z-score is inactive: -0.909. The figure for GGGAAUACGGAACCUUCUUTT against Olfr683 is active: 2.04; for GGAUGAGUUUGAACUAUCCTT against Kcnip2 it is inactive: -1.26; for GGCAAAACCCAUUUAUGGUTT against Mprip it is inactive: -0.356. The figure for UAUUACAAUGAUCACUGGCTT against Id1 is inactive: 0.435. As to GGAGCAAUGUCAUCAGCACTT against Adgra2, the z-score is inactive: -0.645.

With CCUAAAAGCUCAUAGAUUCTT against Cidec, the z-score was inactive: -0.376. Regarding GGAGCUAACUAACGAGAUGTT against T, the z-score is inactive: -0.579. The figure for GCUAAACAGACAACUCAACTT against Rufy2 is inactive: 1.04; for GGAUUUGUCAUCCACUUCUTT against Sez6 it is inactive: -1.79. As to GGUACAAACAAGAUGUGGATT against Smc5, the z-score is inactive: 0.515. To UGGCAAGAUUGAAACCAUATT against Hnrnpa3 belongs inactive: -1.61; to GGACCCAGCUCCUGUACAUTT against Ypel3, active: 2.31; to GGUAUUGUGAAACGUACACTT against Ky, inactive: 0.914. Take GGAGUAUCAUUUCAUCUCATT against Mpp1: the z-score is inactive: 0.798. Regarding CCGUUGUAAUAACAUUGGCTT against Lipg, the z-score is inactive: 0.74. To GGCCUACCUGGUUGAGAAATT against Spam1 belongs inactive: 1.44. With GGAACUCACACAGAACCAATT against Bloc1s6, the z-score was active: 6.84.

Turning to GGACAUCUAACAAAGCUCUTT against Mdn1, the z-score was inactive: -0.592.

For the sequence GCCAGUAAACGGAGCUACCTT against Nmt1, the z-score is inactive: 0.573.

As to GGAGUGUGACUCUCAGAAATT against Adar, the z-score is inactive: -0.653. GGAAAUGUGUGUUUCUUGCTT against Slco1a6: the z-score was inactive: 0.722. To GACUGAACAUAGCCUUCACTT against Olfr677 belongs inactive: 1; to GGUGCUAUGGCUGUGCAUATT against Doxl2, inactive: -0.302; to GGAGAUCAAAUGGAUCGGCTT against Tfdp1, inactive: -0.234.

In the case of GGUAUUUUGACAGAGUCGATT against Add1, the z-score is inactive: -1.24. Take GGAGCUGAGGAAUUGAUCCTT against Pudp: the z-score is inactive: -1.97.

Regarding CGAAUCAGUAGAUUUGACATT against Ppp1r9a, the z-score was inactive: -1.22. For GGCCUGGUCUUAGAAAUAGTT against Dock3, the z-score is inactive: -0.986. The figure for GGACAUUUGAUAUUGAAGATT against B3gnt2 is inactive: -1.88; for GGAAAGAACUGAGUUCUCGTT against Ddx19a it is inactive: -0.912.

Take GGCACCAGAUGUUUGUAGCTT against Fam107a: the z-score is inactive: -1.11.

On to CGUGUGUCCGAAACAGCUATT against Cog8, for which the z-score was inactive: 0.0633.

Regarding GGUAUCUAUGGAGGUUAUUTT against Glmp, the z-score was inactive: 1.83. The figure for “GGGACAACGCACUCCAACATT against 1810024B03Rik” is inactive: 0.904. GGUGGACUCCAGAGUUUAUTT against Polr2h: the z-score is inactive: -1.2. To AGGUUAUUAACAGAUCUCUTT against Olfr1112 belongs inactive: -0.401. The figure for GGAACAUUGUCUUAAGCAATT against Echdc3 is inactive: -0.164; for GCAGAGAGUUUUUAUCUGCTT against Vmp1 it is inactive: 0.0579.

GGAAGUUAAUGGGUAAAGUTT against Olfr365: the z-score is inactive: -1.67. On to GGAUAUGGAGAGUCAUGUGTT against Med15, for which the z-score was inactive: -1.06. To GGCUGACUCUUAGAAAGGGTT against Siah1a belongs inactive: -0.0635; to GGCAGGUGAACAUCACAGUTT against Hacd3, inactive: 0.62.

For the sequence GGACAUUGUUUACAAGCUGTT against Pcgf3, the z-score is inactive: 1.67. GGUCUCAGACAAAGAUGAATT against Trmt10c: the z-score is inactive: -0.239. On to GGGUUUCCAGUACCUCAAUTT against Serpina6, for which the z-score is inactive: -1.28. To GGUUAUAACAGUCUUAGCATT against Tlcd4 belongs inactive: 1.13; to GGAUGAAGAUGAUGGAUGGTT against Entr1, inactive: 0.0729; to CCACAGUGAUUACGAUUAUTT against Mcpt2, inactive: -1.19. To GGCUUGGCUUUCAUGUUACTT against Islr2 belongs inactive: -0.635; to GGAGAGUUUGUCAUUAGUUTT against Herpud2, inactive: 0.78; to GGUGUCAAAUAGCUGAAACTT against Nub1, inactive: -1.03.

For the sequence GGCGUGCACACUAAACUGGTT against Nisch, the z-score was inactive: 0.877.

Consider GGUGAGAAGCAAACUUUCATT against Ggps1, for which the z-score was inactive: -1.47. The figure for UGGUGGAUAUAGGAUUCUUTT against Cd300c is inactive: -0.814.
